This assay addresses c-Myb transactivation domain (aa186-325) fused to GST (UniProt P06876). In words: pull-down; c-Myb transactivation domain (aa186-325) fused to GST as bait; extracts from wild type and CBP^KIX/KIX mouse embryonic fibroblasts; Buffer C (extraction buffer without protein) as control; only the target purified.

Chains of the proteins cited; added tags and fusions are not shown. Residues count along the entry.
UniProt P06876, residues 186-325: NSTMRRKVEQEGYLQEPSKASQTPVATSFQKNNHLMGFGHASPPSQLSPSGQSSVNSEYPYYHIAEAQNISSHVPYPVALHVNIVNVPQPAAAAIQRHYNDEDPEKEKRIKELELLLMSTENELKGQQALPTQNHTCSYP
UniProt P45481: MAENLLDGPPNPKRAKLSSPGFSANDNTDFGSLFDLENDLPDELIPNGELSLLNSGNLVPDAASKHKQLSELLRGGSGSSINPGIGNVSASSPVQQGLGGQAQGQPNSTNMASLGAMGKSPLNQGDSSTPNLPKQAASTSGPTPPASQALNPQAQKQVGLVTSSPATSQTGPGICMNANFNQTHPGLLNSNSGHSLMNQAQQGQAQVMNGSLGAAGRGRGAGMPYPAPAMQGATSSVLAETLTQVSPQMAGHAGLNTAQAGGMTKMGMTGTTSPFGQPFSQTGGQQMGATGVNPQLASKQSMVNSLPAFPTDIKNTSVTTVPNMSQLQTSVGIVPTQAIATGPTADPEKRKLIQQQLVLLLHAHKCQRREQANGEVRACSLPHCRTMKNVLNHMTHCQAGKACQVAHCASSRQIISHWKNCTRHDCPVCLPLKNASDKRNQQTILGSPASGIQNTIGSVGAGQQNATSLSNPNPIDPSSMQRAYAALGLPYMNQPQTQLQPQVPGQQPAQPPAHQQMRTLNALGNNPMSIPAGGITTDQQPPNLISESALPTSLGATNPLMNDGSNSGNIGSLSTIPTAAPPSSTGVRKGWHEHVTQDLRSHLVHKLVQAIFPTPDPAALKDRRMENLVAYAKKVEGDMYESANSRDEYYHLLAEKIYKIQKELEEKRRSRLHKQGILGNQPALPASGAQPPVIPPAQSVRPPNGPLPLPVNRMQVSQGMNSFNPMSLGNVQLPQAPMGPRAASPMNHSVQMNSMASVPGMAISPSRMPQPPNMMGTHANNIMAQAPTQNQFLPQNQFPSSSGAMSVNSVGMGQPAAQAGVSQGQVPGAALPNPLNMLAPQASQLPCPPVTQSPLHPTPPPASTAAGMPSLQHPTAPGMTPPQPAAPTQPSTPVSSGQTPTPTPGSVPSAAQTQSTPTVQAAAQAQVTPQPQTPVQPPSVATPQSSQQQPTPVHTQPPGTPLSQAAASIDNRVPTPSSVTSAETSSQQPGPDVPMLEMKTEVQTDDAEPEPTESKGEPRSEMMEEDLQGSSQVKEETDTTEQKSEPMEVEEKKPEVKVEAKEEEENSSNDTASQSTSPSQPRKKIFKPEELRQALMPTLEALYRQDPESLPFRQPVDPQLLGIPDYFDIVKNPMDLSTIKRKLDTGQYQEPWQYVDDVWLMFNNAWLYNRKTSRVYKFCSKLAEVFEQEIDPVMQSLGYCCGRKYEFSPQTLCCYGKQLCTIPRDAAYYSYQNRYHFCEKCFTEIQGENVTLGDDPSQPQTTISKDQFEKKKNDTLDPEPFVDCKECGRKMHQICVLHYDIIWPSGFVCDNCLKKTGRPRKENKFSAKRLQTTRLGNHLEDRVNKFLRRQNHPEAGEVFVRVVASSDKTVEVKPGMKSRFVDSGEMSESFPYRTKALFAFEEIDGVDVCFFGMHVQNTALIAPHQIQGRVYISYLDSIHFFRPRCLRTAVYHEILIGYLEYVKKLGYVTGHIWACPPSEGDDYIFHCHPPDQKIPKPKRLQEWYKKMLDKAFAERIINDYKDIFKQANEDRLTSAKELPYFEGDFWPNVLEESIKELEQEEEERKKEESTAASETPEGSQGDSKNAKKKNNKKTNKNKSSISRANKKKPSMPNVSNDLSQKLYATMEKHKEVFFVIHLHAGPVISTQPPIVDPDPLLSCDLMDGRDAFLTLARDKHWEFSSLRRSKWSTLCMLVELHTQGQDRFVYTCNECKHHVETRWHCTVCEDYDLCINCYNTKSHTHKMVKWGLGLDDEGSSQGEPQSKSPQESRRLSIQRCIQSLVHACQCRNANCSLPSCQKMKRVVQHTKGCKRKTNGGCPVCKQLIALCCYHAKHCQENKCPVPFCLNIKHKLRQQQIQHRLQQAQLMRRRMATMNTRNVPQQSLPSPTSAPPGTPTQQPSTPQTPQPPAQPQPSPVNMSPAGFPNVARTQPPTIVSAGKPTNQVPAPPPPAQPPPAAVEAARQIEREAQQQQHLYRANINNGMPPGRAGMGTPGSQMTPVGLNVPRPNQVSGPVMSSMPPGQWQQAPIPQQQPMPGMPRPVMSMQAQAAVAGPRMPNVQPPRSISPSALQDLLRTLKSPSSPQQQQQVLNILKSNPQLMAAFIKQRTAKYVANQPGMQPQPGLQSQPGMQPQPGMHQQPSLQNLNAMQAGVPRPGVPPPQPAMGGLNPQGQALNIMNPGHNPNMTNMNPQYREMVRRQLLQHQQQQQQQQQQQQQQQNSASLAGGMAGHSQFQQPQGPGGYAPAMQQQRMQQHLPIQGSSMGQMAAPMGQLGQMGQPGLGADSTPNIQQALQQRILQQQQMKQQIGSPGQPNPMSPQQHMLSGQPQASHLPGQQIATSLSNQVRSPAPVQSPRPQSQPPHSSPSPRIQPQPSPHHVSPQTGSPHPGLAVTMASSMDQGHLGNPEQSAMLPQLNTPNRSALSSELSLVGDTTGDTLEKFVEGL

These are yes or no findings as the source states them, for the method shown. Binding seen in cells or lysates may run through a third protein. Some results given as binding are weak or reduced against the parent protein; the word gives no strength.

In the case of “CBP (CREB binding protein, Crebbp) (from UniProt P45481 1-2441)”, the binding result is reported as “binds”.

Values taken from paper PMC3858336.
